Experimental findings from the supplement of paper PMC11006884 are described below.

Amino acid sequences for entries named in this document (tags omitted). A change or cut given only in a name is not applied to a line headed by its entry.
UniProt O76071: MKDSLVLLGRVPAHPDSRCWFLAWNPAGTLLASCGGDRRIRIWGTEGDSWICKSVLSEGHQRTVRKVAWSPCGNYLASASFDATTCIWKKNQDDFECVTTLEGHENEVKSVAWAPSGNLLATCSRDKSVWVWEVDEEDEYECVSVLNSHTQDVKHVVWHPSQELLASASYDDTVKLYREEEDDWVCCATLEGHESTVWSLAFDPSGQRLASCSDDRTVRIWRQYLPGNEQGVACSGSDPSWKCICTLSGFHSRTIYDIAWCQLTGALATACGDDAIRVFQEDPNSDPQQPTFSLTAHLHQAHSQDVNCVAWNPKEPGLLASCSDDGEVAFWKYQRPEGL
UniProt O60216: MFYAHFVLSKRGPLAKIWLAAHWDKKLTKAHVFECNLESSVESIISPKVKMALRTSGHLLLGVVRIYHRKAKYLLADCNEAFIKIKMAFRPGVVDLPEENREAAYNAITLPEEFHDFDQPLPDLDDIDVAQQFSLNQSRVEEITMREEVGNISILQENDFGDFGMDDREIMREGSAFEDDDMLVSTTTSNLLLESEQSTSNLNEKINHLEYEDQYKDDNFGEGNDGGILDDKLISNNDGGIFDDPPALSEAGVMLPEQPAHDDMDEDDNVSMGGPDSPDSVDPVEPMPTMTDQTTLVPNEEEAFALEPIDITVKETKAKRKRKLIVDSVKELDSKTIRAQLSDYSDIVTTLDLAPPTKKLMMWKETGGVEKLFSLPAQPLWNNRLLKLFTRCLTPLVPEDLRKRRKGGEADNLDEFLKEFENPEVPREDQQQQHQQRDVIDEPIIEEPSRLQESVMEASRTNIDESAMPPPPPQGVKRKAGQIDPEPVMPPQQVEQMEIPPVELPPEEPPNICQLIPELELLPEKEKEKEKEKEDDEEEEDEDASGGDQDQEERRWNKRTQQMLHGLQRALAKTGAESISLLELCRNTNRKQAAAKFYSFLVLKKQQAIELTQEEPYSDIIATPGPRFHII
UniProt O75934: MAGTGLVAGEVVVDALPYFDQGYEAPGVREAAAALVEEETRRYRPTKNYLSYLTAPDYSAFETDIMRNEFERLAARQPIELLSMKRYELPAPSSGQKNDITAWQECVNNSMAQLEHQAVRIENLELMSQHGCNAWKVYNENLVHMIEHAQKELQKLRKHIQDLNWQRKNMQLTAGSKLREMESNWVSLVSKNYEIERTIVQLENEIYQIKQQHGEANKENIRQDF
UniProt O43708: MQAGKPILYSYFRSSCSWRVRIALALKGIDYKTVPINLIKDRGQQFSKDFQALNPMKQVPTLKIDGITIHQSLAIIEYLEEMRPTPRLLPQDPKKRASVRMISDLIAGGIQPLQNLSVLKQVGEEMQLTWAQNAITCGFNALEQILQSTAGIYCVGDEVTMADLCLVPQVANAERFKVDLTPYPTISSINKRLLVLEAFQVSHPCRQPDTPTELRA
UniProt O43818: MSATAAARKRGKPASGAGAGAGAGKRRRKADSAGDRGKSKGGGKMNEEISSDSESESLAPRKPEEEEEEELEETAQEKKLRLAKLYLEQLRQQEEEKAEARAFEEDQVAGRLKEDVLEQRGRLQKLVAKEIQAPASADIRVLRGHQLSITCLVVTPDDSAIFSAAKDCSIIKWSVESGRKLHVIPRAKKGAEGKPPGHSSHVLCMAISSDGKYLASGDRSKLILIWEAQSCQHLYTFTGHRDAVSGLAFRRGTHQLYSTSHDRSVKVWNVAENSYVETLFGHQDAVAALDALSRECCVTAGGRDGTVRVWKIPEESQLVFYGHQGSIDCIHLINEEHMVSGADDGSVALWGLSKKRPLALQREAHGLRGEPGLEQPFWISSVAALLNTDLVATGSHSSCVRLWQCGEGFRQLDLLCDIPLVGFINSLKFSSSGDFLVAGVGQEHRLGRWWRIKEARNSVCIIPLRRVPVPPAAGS
UniProt O60313: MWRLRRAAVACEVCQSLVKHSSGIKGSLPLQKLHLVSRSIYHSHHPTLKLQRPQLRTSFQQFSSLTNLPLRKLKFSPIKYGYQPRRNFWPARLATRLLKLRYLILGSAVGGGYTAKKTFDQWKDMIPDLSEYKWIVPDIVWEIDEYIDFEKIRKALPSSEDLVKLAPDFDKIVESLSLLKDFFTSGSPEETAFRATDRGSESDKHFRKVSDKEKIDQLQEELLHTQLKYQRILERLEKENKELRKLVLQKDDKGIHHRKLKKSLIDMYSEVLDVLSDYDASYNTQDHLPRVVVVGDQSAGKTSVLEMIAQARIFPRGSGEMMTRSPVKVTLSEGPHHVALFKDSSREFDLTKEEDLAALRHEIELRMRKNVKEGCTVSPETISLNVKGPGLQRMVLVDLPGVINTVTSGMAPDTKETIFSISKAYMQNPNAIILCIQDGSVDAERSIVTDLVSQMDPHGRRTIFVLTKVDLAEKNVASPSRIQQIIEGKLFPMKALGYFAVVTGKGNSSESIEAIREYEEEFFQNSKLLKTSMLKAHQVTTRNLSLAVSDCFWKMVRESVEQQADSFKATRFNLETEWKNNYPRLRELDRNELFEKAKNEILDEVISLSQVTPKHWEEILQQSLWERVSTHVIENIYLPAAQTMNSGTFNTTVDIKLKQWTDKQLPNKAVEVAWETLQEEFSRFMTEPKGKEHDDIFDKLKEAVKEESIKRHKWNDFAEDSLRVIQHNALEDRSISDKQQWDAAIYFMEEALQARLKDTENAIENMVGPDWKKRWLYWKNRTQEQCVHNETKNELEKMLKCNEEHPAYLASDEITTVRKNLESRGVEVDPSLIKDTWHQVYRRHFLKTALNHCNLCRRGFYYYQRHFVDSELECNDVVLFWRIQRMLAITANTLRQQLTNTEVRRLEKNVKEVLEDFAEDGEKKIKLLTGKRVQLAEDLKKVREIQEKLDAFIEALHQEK
UniProt O43491, whole entry, looked up: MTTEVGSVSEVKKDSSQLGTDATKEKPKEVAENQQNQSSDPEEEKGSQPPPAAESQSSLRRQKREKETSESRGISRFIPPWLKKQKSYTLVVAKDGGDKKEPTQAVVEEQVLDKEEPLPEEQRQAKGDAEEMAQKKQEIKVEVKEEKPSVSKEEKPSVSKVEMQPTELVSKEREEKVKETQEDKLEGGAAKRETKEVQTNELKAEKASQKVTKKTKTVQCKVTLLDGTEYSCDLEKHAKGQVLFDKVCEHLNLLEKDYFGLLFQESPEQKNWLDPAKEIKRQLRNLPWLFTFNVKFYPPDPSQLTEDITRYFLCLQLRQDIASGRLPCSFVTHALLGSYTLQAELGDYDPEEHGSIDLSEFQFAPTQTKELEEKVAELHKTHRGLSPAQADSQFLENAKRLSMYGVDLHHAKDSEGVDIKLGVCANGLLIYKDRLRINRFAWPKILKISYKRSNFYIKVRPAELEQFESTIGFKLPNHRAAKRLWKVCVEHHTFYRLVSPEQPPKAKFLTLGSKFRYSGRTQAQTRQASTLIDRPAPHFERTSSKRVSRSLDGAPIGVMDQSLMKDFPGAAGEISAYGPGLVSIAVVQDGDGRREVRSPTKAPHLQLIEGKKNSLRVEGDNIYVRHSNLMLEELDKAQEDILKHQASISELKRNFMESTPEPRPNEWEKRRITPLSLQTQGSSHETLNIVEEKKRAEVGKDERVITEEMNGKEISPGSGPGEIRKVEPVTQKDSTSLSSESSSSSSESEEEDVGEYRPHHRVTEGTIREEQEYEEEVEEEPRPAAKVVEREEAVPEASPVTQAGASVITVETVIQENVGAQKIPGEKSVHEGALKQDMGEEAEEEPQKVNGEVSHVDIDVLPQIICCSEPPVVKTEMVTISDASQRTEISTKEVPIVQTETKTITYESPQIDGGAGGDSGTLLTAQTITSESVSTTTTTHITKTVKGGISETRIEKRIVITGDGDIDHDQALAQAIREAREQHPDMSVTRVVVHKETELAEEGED
UniProt O75116: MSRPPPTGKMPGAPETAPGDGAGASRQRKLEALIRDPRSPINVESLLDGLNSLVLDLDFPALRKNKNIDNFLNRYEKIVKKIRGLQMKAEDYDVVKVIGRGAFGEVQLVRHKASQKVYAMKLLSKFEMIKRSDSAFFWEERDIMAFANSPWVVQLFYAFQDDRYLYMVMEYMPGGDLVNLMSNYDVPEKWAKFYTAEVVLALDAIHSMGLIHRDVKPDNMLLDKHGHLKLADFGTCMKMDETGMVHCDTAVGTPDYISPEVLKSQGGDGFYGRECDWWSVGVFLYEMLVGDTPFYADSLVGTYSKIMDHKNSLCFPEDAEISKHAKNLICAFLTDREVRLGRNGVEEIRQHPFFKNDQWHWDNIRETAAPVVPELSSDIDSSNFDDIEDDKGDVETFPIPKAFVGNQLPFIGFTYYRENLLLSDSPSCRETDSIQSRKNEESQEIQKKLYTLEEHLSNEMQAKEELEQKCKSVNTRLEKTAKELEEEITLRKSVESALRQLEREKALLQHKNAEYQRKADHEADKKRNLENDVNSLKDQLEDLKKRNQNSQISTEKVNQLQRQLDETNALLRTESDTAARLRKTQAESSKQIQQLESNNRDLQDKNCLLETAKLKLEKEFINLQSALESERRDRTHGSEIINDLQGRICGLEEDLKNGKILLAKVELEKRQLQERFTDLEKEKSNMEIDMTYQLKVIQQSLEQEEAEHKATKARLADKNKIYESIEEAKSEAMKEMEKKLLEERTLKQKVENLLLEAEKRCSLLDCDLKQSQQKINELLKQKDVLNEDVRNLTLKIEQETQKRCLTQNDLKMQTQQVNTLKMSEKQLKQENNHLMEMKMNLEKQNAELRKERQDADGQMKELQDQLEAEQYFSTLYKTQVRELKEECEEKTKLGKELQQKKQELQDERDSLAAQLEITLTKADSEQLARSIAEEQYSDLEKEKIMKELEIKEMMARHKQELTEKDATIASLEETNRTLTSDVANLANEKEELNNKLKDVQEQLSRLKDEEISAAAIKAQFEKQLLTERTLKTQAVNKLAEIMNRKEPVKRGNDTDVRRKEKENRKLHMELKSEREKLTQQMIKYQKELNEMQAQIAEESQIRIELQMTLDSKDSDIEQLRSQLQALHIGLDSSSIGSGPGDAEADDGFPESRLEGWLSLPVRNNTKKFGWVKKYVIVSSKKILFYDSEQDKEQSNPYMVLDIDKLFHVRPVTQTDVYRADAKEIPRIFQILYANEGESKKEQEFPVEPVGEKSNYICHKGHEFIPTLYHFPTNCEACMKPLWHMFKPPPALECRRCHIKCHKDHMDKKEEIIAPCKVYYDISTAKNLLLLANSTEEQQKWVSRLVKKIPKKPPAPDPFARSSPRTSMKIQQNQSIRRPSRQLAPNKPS
UniProt O75449: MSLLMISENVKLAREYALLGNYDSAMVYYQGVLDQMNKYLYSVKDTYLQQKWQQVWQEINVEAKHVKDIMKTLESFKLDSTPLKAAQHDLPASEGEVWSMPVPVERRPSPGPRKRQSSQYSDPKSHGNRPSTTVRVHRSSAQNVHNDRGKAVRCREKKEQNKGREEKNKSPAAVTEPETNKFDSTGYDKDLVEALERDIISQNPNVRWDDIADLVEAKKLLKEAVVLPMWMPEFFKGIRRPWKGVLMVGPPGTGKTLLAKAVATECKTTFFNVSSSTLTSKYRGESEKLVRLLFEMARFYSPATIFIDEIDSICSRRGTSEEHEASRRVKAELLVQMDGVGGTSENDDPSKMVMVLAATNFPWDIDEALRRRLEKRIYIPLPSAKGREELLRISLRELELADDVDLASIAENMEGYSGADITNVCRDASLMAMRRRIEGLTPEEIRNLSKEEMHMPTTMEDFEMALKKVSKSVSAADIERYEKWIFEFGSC
UniProt O43837: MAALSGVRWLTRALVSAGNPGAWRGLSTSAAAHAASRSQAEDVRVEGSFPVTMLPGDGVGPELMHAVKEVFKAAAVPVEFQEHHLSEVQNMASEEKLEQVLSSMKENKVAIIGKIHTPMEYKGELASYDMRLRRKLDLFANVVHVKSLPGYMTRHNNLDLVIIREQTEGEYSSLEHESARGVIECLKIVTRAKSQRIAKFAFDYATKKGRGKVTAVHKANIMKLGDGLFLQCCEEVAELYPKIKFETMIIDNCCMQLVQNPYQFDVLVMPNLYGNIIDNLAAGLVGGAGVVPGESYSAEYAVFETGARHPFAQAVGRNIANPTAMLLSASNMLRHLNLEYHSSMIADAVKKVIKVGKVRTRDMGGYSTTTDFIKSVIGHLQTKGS
UniProt O60664: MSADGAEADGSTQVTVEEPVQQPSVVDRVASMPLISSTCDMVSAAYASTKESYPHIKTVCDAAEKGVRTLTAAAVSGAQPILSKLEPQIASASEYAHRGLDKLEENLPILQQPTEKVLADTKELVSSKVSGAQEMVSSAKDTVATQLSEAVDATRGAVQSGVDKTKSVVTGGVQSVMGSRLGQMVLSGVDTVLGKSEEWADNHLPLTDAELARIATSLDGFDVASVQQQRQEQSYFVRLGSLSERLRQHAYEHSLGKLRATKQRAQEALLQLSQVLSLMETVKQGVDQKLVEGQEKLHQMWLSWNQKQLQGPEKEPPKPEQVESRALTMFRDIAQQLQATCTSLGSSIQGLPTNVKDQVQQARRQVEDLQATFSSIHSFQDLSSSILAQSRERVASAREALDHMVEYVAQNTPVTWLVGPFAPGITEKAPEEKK

Only a part is listed here, and it is no random draw.

Compound in the assay: COC(=O)C#Cc1ccccc1 [methyl 3-phenylpropiolate]
In words: log2 ratio of iodoacetamide-alkyne labeling of the cysteine site, DMSO over compound (competition); higher = stronger covalent engagement of the cysteine by the compound, active = 1 or more. The settings on record: 500 µM; treatment time 1 h; system: HEK293T cell lysate. The essentials: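 Reporter intensities give each cysteine's log2 competition ratio as the mean of control channels over the mean of compound channels. The samples were HEK293T lysate (2 mg/mL) given vehicle or electrophile (500 µM, 1 h, ambient temperature), then iodoacetamide alkyne (1 h), followed by click coupling to sCIP-TMT reagents, pooling, trypsin digestion overnight at 37 °C, streptavidin enrichment, acid elution, Orbitrap Eclipse LC-MS/MS with FAIMS and FragPipe quantification. Duplicate channels and three replicates were run, and cysteines quantified in only one replicate were discarded.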
UniProt O75947_C101: the “log2 ratio of iodoacetamide-alkyne labeling” value (“log2 ratio” for short) is inactive: 0.98.

Regarding CIAO1 C234 (UniProt O76071), the “log2 ratio” value was inactive: 0.325.

For the target ERAL1 C425 (UniProt O75616), the “log2 ratio” value is inactive: 0.325.

For RAD21 C392 (UniProt O60216), the “log2 ratio” value was inactive: -0.047.

On to SGTA C129 (UniProt O43765), for which the “log2 ratio” value was inactive: 0.0696.

Turning to UniProt O75934_C106, the “log2 ratio” value is inactive: 0.266.

With GSTZ1 C205 (UniProt O43708), the “log2 ratio” value is inactive: -0.00836.

Consider RRP9 C296 (UniProt O43818), for which the “log2 ratio” value was inactive: 0.3.

For the target UniProt O75879_C228, the “log2 ratio” value was inactive: 0.00949.

For DNAJB6 C275 (UniProt O75190), the “log2 ratio” value was inactive: 0.372.

Regarding H2AFY C297 (UniProt O75367), the “log2 ratio” value is inactive: 0.405.

Take CSDE1 C506 (UniProt O75534): the “log2 ratio” value is inactive: 0.266.

OPA1 C551 (UniProt O60313): the “log2 ratio” value was inactive: -0.018.

As for MAST3 C541 (UniProt O60307), the “log2 ratio” value is inactive: 0.46.

As for EPB41L2 C424 (UniProt O43491), the “log2 ratio” value was inactive: 0.17.

Take ANKRD17 C1622 (UniProt O75179): the “log2 ratio” value was inactive: 0.196.

Turning to ROCK2 C428 (UniProt O75116), the “log2 ratio” value is inactive: 0.539.

On to KATNA1 C314 (UniProt O75449), for which the “log2 ratio” value was inactive: 0.147.

For the target IDH3B C185 (UniProt O43837), the “log2 ratio” value was inactive: 0.839.

As for NUP155 C974 (UniProt O75694), the “log2 ratio” value is inactive: 0.209.

Turning to UniProt O60664_C60, the “log2 ratio” value is inactive: 0.479.

Take NDUFS7 C183 (UniProt O75251): the “log2 ratio” value is inactive: 0.368.
